PubChem BioAssay AID602196, INSERM, 2012
This is a random part of about 23,000 reagents. Over the whole deposit, 455 (2%) are marked active. 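Active includes both protection and sensitisation; some change values fall well beyond the stated -50 to +50 range.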 Not all columns of the deposit are shown. The record does not give: the amount of reagent.

Purpose: 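Knock-downs that protect lung cancer cells from cisplatin or sensitise them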
Cells: human A549 lung cancer cells
Knock-down reagent: siRNA pair against human genes
Duration: 48 h transfection before cisplatin; time from cisplatin to read-out not stated
Conditions: cisplatin at a dose killing half of control-siRNA cells; exact dose and duration not given
Measurement: 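Shift in cisplatin death relative to control siRNA, from -50 (all cells die) to +50 (no cells die); siRNAs harmful on their own scored 0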
Scale: two-siRNA summed score (-2 to +2): higher = both siRNAs protect from cisplatin killing; -2 means both sensitise; mean protection from cisplatin (shift in death): higher = protection from cisplatin killing
Active means: 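siRNAs harmful alone (LDH or WST-1) get 0; others get +1 for less and -1 for more cisplatin killing; genes are active when the two siRNAs give the same sign, summing to ±2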
Meaning of the calls: active = both siRNAs shift cisplatin killing the same way; inactive = no consistent shift, or siRNA harmful alone

ENHO (GeneID 375704)
- two-siRNA summed score (-2 to +2): 0
- mean protection from cisplatin (shift in death) (%): 10.8
- Call: inactive

LOC401922
- two-siRNA summed score (-2 to +2): 0
- mean protection from cisplatin (shift in death) (%): 12
- Call: inactive

ADRA1D (GeneID 146)
- two-siRNA summed score (-2 to +2): -1
- mean protection from cisplatin (shift in death) (%): -15.5
- Call: inactive

SCTR (GeneID 6344)
- two-siRNA summed score (-2 to +2): -1
- mean protection from cisplatin (shift in death) (%): -17.7
- Call: inactive

CRLF1 (GeneID 9244)
- two-siRNA summed score (-2 to +2): -1
- mean protection from cisplatin (shift in death) (%): -17.8
- Call: inactive

CSGALNACT1 (GeneID 55790)
- two-siRNA summed score (-2 to +2): 0
- mean protection from cisplatin (shift in death) (%): 8.3
- Call: inactive

LEFTY1 (GeneID 10637)
- two-siRNA summed score (-2 to +2): 0
- mean protection from cisplatin (shift in death) (%): -42.5
- Call: inactive

TRIM63 (GeneID 84676)
- two-siRNA summed score (-2 to +2): 0
- mean protection from cisplatin (shift in death) (%): -4
- Call: inactive

CDHR2 (GeneID 54825)
- two-siRNA summed score (-2 to +2): -1
- mean protection from cisplatin (shift in death) (%): -2.6
- Call: inactive

LOC388563
- two-siRNA summed score (-2 to +2): 0
- mean protection from cisplatin (shift in death) (%): 8
- Call: inactive

CAMKK2 (GeneID 10645)
- two-siRNA summed score (-2 to +2): 1
- mean protection from cisplatin (shift in death) (%): 4.7
- Call: inactive

LY96 (GeneID 23643)
- two-siRNA summed score (-2 to +2): 0
- mean protection from cisplatin (shift in death) (%): 4.9
- Call: inactive

2 entries from above, sorted by “mean protection from cisplatin (shift in death) (%)”, low to high:
CAMKK2 (GeneID 10645)
- two-siRNA summed score (-2 to +2): 1
- mean protection from cisplatin (shift in death) (%): 4.7
- Call: inactive

LY96 (GeneID 23643)
- two-siRNA summed score (-2 to +2): 0
- mean protection from cisplatin (shift in death) (%): 4.9
- Call: inactive
